Measurements: article PMC7253607
These are yes or no findings as the source states them, for the method shown. Some results given as binding are weak or reduced against the parent protein; the word gives no strength. Tags and fused reporters may be left off the sequences shown.

Amino acid sequences for entries named in this document (tags omitted).
UniProt Q9RGX0: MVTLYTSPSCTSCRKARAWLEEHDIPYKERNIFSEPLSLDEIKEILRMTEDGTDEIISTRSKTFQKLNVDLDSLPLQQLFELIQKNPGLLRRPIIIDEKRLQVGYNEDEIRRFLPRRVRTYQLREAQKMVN

Tests used:
[1] = biological target: T1, B. subtilis Spx (SpxBs), BACTH fusion (Bacillus subtilis) (UniProt O31602); assay: two-hybrid
T1 sequence: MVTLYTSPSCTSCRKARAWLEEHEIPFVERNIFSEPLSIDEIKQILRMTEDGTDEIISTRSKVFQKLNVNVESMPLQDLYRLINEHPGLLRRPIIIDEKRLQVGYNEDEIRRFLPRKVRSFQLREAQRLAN

[2] = biological target: L. monocytogenes SpxA1 fused to the T25 domain (SpxA1-T25) (Listeria monocytogenes) (UniProt Q9RGX0); assay: two-hybrid

B1: B. subtilis YjbH (YjbHBs), BACTH fusion (protein, UniProt O31606 1-299)
chain: MTNYQHELYFAHCHGHPKKPLEIYMFVDPLCPECWSLEPVIKKLKIRYGRFFTLRIIASASLTALNKKRKKHLLAEAWEKIASRSGMSCDGNVWFEQDQPLSSPYMAALAFKAAELQGRKAGMQFLRNMQESLFVSKKNITDENVLLEIAENTSLDLEEFKKDLHSQSAVKALQCDMKIAAEMDVSVNPTLTFFNTQHEDEGLKVPGSYSYDVYEEILFEMLGDEPKPSETPPLECFIEYFRFVASKEIALVYDLSLEEVEKEMKKLAFAKKVAKVEAKHGMFWKSLSTYSDEYQSCEK
[1]
  binding: binds
[2]
  binding: binds
